Laboratory results: PubChem BioAssay AID652272 (Drosophila RNAi Screening Center, 2013)

Assay: 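Genes whose knock-down decreases or increases Hedgehog reporter output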 (primary screen)
Cells: Drosophila clone 8 (Cl8) cells
Reagents: long dsRNA against Drosophila genes
Detection: 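Plate reader light from a firefly reporter under a ptc promoter fragment that responds to Hedgehog, with Renilla light as transfection reference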
Scale: firefly Hh reporter signal: higher = more ptc reporter light; Renilla reference signal: higher = more Renilla control light
Call rule: 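Called a hit if the two-replicate mean z-score lies below -2 or above +3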
Calls: active = hit: reporter lowered or raised; inactive = not a hit
The deposit covers about 21,000 reagents; shown is a random part of those with a known target gene and a result. In the full data, 503 (2.4%) got an active call. 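Raw plate light values, not normalised; calls rest on replicate z-scores that were not deposited; hits include reporter decreases as well as increases.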 The numbers tell different reagents against one gene apart. Not stated in the record: the amount of reagent, the time to read-out.

target | reagent | firefly Hh reporter signal, replicate 1 | firefly Hh reporter signal, replicate 2 | firefly Hh reporter signal, replicate 3 | Renilla reference signal, replicate 1 | Renilla reference signal, replicate 2 | outcome
CG15209 (GeneID 32011) | 1 | 66395 | 2.10e5 | – | 993 | 7997 | inactive
CG9098 (GeneID 33840) | 1 | 2.76e5 | 8.24e5 | 1.35e5 | 9248 | 43301 | inactive
galla-2 (GeneID 39221) | 1 | 5.47e5 | 76717 | 55873 | 3444 | 6484 | inactive
mRpL41 (GeneID 36688) | 1 | 78576 | 52965 | – | 1997 | 3146 | inactive
CG7110 (GeneID 34757) | 1 | 46960 | 80614 | – | 1787 | 2738 | inactive
CG7110 (GeneID 34757) | 2 | 98240 | 44105 | – | 2916 | 4682 | inactive
CG8155 (GeneID 36698) | 1 | 1.36e5 | 1.31e5 | – | 5728 | 4944 | inactive
l(2)k10201 (GeneID 48373) | 1 | 1.35e5 | 66443 | – | 3330 | 5717 | inactive
l(2)k10201 (GeneID 48373) | 2 | 1.09e5 | 54736 | – | 2515 | 4650 | inactive
CG10934 (GeneID 37013) | 1 | 96972 | 76857 | – | 5072 | 3035 | inactive
CG9458 (GeneID 41214) | 1 | 91971 | 1.50e5 | – | 3211 | 4168 | inactive
kar (GeneID 45883) | 1 | 1.13e5 | 56176 | – | 4392 | 2707 | inactive
CG43071 (GeneID 12798340) | 1 | 80244 | 1.48e5 | – | 2790 | 7453 | inactive
ACXC (GeneID 34689) | 1 | 1.17e5 | 52066 | – | 2966 | 4380 | inactive
whe (GeneID 33121) | 1 | 86537 | 2.18e5 | – | 1232 | 8631 | inactive
Hey (GeneID 35764) | 1 | 18807 | 7692 | – | 916 | 936 | active
CG34230 (GeneID 5740558) | 1 | 1.31e5 | 2.26e5 | – | 3184 | 8407 | inactive
CG17999 (GeneID 37357) | 1 | 1.20e5 | 50962 | – | 4386 | 1874 | inactive
CG1233 (GeneID 38063) | 1 | 83830 | 58997 | – | 3340 | 2157 | inactive
siz (GeneID 40327) | 1 | 91219 | 1.17e5 | – | 2917 | 3090 | inactive
siz (GeneID 40327) | 2 | 1.18e5 | 1.52e5 | – | 3812 | 4496 | inactive
siz (GeneID 40327) | 3 | 71467 | 94825 | – | 2480 | 3216 | inactive
Cyt-c1 (GeneID 38612) | 1 | 1.65e5 | 67604 | – | 5641 | 2711 | inactive
nej (GeneID 43856) | 1 | 55385 | 91472 | – | 1580 | 4600 | inactive
nej (GeneID 43856) | 2 | 55641 | 44886 | – | 1240 | 1216 | inactive
Prp8 (GeneID 36304) | 1 | 26272 | 25633 | – | 2178 | 1997 | active
CG8916 (GeneID 32553) | 1 | 54775 | 1.78e5 | – | 1863 | 7264 | inactive
stil (GeneID 36380) | 1 | 75315 | 34272 | – | 3532 | 1508 | inactive
CG15543 (GeneID 43647) | 1 | 81981 | 1.36e5 | – | 1340 | 7318 | inactive
ttm50 (GeneID 31266) | 1 | 1.03e5 | 98169 | – | 2315 | 2997 | inactive
Atac3 (GeneID 38055) | 1 | 90711 | 34761 | – | 3409 | 2631 | inactive
CG4375 (GeneID 33278) | 1 | 1.17e5 | 67256 | – | 2593 | 1600 | inactive
ND4 (retired record) (GeneID 192476) | 1 | 2.18e5 | 4.03e5 | – | 7251 | 18627 | inactive
Dll (GeneID 37973) | 1 | 1.02e5 | 43816 | – | 2161 | 3655 | inactive
CG32726 (GeneID 318175) | 1 | 3.82e5 | 1.29e5 | – | 25463 | 3131 | inactive
DIP-beta (GeneID 33125) | 1 | 3.84e5 | 1.65e5 | – | 26130 | 3812 | inactive
DIP-beta (GeneID 33125) | 2 | 53291 | 2.21e5 | – | 1530 | 10397 | inactive
DIP-beta (GeneID 33125) | 3 | 1.13e5 | 2.89e5 | – | 2301 | 13121 | inactive
DIP-beta (GeneID 33125) | 4 | 1.18e5 | 3.25e5 | – | 2213 | 14848 | inactive
TwdlS (GeneID 43209) | 1 | 74722 | 1.01e5 | – | 2290 | 2785 | inactive
KrT95D (GeneID 42843) | 1 | 1.09e5 | 50525 | – | 4384 | 2123 | inactive
CG10357 (GeneID 38435) | 1 | 81673 | 41671 | – | 2615 | 3223 | inactive
Cp7Fb (GeneID 31785) | 1 | 75776 | 2.80e5 | – | 2387 | 10284 | inactive
lky (GeneID 33006) | 1 | 70920 | 1.74e5 | – | 2295 | 7462 | inactive
Osi22 (GeneID 41632) | 1 | 1.00e5 | 72054 | – | 3733 | 2008 | inactive
Cyp309a2 (GeneID 33439) | 1 | 91916 | 91142 | – | 2032 | 1977 | inactive
Evi5 (GeneID 32088) | 1 | 63120 | 2.97e5 | – | 2576 | 10069 | inactive
CG42580 (GeneID 8673961) | 1 | 6.50e5 | 2.65e5 | – | 38564 | 6104 | inactive
Nak (GeneID 35154) | 1 | 85063 | 61331 | – | 3088 | 2714 | inactive
CG17712 (GeneID 33356) | 1 | 1.47e5 | 98291 | – | 5864 | 3991 | inactive
MED15 (GeneID 33223) | 1 | 55216 | 1.02e5 | – | 3108 | 4171 | inactive
vnd (GeneID 31003) | 1 | 5.71e5 | 2.67e5 | – | 31844 | 5064 | inactive
vnd (GeneID 31003) | 2 | 1.11e5 | 4.87e5 | 2.54e5 | 4117 | 3797 | inactive
ecd (GeneID 38291) | 1 | 78438 | 73856 | – | 4208 | 3440 | inactive
UGP (GeneID 39065) | 1 | 1.41e5 | 85515 | – | 5961 | 3609 | inactive
Dys (GeneID 42327) | 1 | 49303 | 2.58e5 | – | 10233 | 5600 | inactive
Dys (GeneID 42327) | 2 | 56336 | 2.26e5 | – | 12067 | 5468 | inactive
Dys (GeneID 42327) | 3 | 7.04e5 | 1.32e5 | – | 39685 | 2855 | inactive
Dys (GeneID 42327) | 4 | 5.08e5 | 77980 | – | 30291 | 2028 | inactive
Dys (GeneID 42327) | 5 | 5.79e5 | 88197 | – | 35138 | 2314 | inactive
Dys (GeneID 42327) | 6 | 5.24e5 | 85616 | – | 29945 | 2058 | inactive
Dys (GeneID 42327) | 7 | 5.11e5 | 72738 | – | 29463 | 2354 | inactive
